Values of other authors in patent EP3338772A1, “[…] COMPOSITIONS STABILIZED BY HYDROXYCARBOXYLIC ACIDS , THE PRODUCTION THEREOF AND HIGHLY CONCENTRATED MAGNESIUM COMPOSITIONS” (Merz Pharma GmbH & Co. KGaA, priority 2016, dated 2018).
“And” between values parts separate entries of the source, which are not always exact repeats. Equal values may be shown once. The name of at least one read-out is uncertain.

Conditions: after 2 days

Substance | Magnesium in Lösung (2,2 g in 1 Liter Sojamilch) [mg/L] | Magnesium in stabiler Lösung (3 g in 1 Liter Sojamilch, 2880 min)
Trimagnesiumdicitrat*Nonahydrat (C12H10O14Mg3*9H2O) | 307 | –
Kalium-Magnesium-Citrat-Verbindungen | – | 445 mg/L and 545 mg/L
